Here are results for three sequences from PMC6958661, “Regulatory Role of PlaR (YiaJ) for Plant Utilization in Escherichia coli K-12” (Scientific Reports, 2019).

The target of the series is T1, PlaR (YiaJ) (Escherichia coli K-12) (UniProt P37671).
T1 sequence (looked up): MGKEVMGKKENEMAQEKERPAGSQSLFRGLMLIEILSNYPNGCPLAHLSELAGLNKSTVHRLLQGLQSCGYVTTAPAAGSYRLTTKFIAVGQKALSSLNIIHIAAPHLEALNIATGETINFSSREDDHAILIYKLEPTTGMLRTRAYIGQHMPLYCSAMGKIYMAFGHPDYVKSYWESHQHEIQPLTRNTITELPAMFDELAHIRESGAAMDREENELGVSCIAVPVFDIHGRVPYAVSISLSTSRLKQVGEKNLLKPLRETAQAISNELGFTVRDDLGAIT
The experiment in a line: EMSA. To be noted: 10 mM Tris-HCl pH 7.8 (at 4 C), 150 mM NaCl, 3 mM Mg acetate, 37 C 20 min, 5% PAGE, GelRed stain, recombinant protein, residues 1-282, protein details: His-tag (pET21a(+), NdeI/NotI), probe letters rebuilt from the primers and the genome. On the technique in general: A gel shift assay detects complexes by their altered migration in electrophoresis.

A negative result means that nothing was seen under these conditions. Where a protein sequence is shown, tags need not be part of it. For at least one entry, the source does not settle the construct or the ends of the probe. The comparison behind a weaker result is the experiment's own reference, which may not be listed here.

For the sequence “CTCAAATCATCCTGCGTTCCCCACTGGCGCTTTTTAGGGCTGAATACAACCGCATCAGGATGGCGAGTTAAAAAATCCTGTTCATCCGTCTGCGTGTCCGGTTGCGAAGCGTCCGGACGAGAAGGTTTTTTATCTGACGGATCATGTTTTGATTTTACTGACGGATCCCCGCCAGATTCTGACGGGTGAAAACCCGATTTTTTGCCAGATTTCGACGCATCAAATTTTGACGGGTCAGATTTTGATGCGTCAGATTTTGACGGGTCAGAGTCTGACAGTTGAGAAAATGCCGCTGCCTGAAGCTTCGCAACGTTAAGCTGATAAACATTCGACGCATTGCGGTTATGATGAGGAGCAGCAAA (double strand) [yfdO/yfdP probe]”, the binding result (PlaR up to 5 uM) was “no binding”.
Take “TTTGTCGCGTCCTGATGGTAGCGCAAAGTGTGCCGTAGTTCACGATCTCGACAGATAATTTATAACCAATTGATTTTTATGTCTTTTGAAATTCATCAATCAGATTGCCTTGTTAAAAAGTGATCGATATATTTGAAATCAAGTTTCGCATATTGAAATTTTAAGCCAAAAAAGCGATCAAAAAAACAAGGAAGCCTGGGATGAAAGTGACATTTGAGCAGTTAAAAGCAGCCTTTAATCGGGTCTTAATTTCACGCGGCGTTGACAGCGAAACGGCTGACGCCTGTGCAGAGATGTTCGCCCGCACCACCGAATCCGGCGTTTATTCTCACGGCGTTAATCGTTTCCCTCGTTTCATTCAACAACTGGAAAACGGCGATATCATTCCTGATGCCCAACCCAAACGTATAACCAGCCTCGGCGCAATTGAACAGTGGGACGCCCAGCGTTCGATCGGTAACCTGACAGCGAAAAAGATGATGGATCGCGCCATTGAACTG (double strand) [plaR/yiaK probe]”: the binding result is, setting by setting: (10 mM D-glucuronate (no effect), PlaR 2.5 uM) “binds”; (10 mM L-ascorbate, PlaR 2.5 uM) “binds more weakly”; (10 mM alpha-D-galacturonate, PlaR 2.5 uM) “binds more weakly”; (PlaR 1-5 uM, strongest of the probes) “binds”.
“TTCGGGTTATTAGCGAAATCGCCGCCCATCTGCATCACATTGTGCTGCGGCTCAAGCAGGAAGCCGCCAGACGGCGTTCCGGTGGTCGTATCAGTCTCAGTAGGTTTTGGCTTGCTGCTACAGGCGGCAAGCAACACAAAAAGGGGAAGCAATGTTACATAACGACGCTTGAACATGAGGGGTCCATTTAACAGATTCAACCAGGGGCAAGTATGGTAAAGCATCACGCCCCGCACAAGGAAGCGGTAGTCACTGCCCGATACGGACTTTACATAACTCAACTCATTCCCCTCGCTATCCTTTTATTCAAACTTTCAAATTAAAATATTTATCTTTCATTTTGCGATCAAAATAACACTTTTAAATCTTTCAATCTGATTAGATTAGGTTGCCGTTTGGTAATAAAACAATAAATCCTGAAGGAGAGAACAATGATAGAAACCATTACTCATGGTGC (double strand) [mltB/srlA probe]”: the binding result (PlaR 1-5 uM, called low-affinity target) is recorded as “binds”.
